“And” between values parts separate entries of the source, which are not always exact repeats. Equal entries are not always repeated. Where two headings read alike, the source gives them in different places. At least one structure is not confirmed: it was looked up by name or label, or the drawing left a doubt. Marks after values point to notes of the source that are not given here.
Procedure: Formulations prepared by mixing the dry solid powder of the tested compound in either the blank formulation to form 5% w/v or in a formulation already containing 5% w/w CBD. Particle size was determined by particle size analyzer.

C[C@H](CCC(=O)O)[C@H]1CC[C@H]2[C@@H]3CC[C@@H]4C[C@H](O)CC[C@]4(C)[C@H]3C[C@H](O)[C@]12C [Deoxycholic acid]
PDI (3 hr after dissolution): 0.577 | Particle size (3 hr after dissolution): 41.6 nm | Visual (3 hr after dissolution): clear | PDI (after 13 days in 4 C): 0.417 | Particle size (after 13 days in 4 C): 20.83 nm | Visual (after 13 days in 4 C): clear

C[C@@H]1C[C@H]2[C@@H]3CCC4=CC(=O)C=C[C@]4(C)[C@@]3(F)[C@@H](O)C[C@]2(C)[C@@]1(O)C(=O)CO [Dexamethasone]
PDI (3 hr after dissolution): >1*** | Particle size (3 hr after dissolution): 313.8 nm | Visual (3 hr after dissolution): milky | PDI (after 13 days in 4 C): >1 | Particle size (after 13 days in 4 C): 253.3 nm | Visual (after 13 days in 4 C): milky

C[C@H]1C[C@@H]2[C@H]([C@@H](O)C[C@@]3(C)[C@H]2CC[C@]3(O)C(=O)CO)[C@@]2(C)C=CC(=O)C=C12 [Methylprednisolone]
PDI: 0.206 and 0.16 | Particle size: 22.59 nm and 21.58 nm | Visual: clear

— patent US20180325861A1, “NOVEL CANNABINOID FORMULATIONS” (priority 2015, published 2018)
